For the assay, the target named is T1, Vascular endothelial cadherin (human (endogenous in CRL-2922)) (UniProt P33151).
T1 sequence: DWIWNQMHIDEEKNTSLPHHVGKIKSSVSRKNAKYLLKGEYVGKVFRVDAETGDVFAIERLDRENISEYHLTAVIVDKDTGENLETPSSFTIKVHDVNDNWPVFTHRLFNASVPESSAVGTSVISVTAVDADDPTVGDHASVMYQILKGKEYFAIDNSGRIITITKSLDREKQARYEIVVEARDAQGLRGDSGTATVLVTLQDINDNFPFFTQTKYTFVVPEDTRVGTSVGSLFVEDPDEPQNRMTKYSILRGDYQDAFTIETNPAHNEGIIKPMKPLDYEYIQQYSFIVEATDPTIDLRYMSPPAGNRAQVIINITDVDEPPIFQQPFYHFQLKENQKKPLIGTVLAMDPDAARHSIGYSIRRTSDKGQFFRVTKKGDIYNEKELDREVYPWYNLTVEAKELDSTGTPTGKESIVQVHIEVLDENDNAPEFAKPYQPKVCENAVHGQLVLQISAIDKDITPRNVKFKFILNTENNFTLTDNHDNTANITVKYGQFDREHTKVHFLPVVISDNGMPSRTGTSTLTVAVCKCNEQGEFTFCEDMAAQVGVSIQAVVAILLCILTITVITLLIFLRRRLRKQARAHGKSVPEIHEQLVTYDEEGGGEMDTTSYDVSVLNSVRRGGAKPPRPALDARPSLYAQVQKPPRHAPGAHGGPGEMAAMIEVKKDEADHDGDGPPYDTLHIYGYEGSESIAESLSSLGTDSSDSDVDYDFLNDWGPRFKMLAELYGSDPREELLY
The assay can be described thus: co-IP; total protein of CRL-2922 cells after LPS (10 µg/mL, 1 h to 4 h), with or without CPZ, clathrin siRNA, filipin, Cav-1 siRNA, SU6656, CLI-095, Cyt D or Jasp; primary antibody overnight at 4°C, protein G-agarose 24 h, washed 4 times with radioimmunoprecipitation assay buffer, SDS-PAGE and blot, densitometry ratio.

These are yes or no findings as the source states them, for the method shown. Binding seen in cells or lysates may run through a third protein. Binding can be weak; no strength is given.

“Clathrin (human (endogenous in CRL-2922))”: the binding entry is reported as “binds”.
